# Laboratory results from patent publication US8658592B2, “Biologically active peptides and their new uses” (priority 2005, dated 2014).
# Read-outs that look alike come from different tables or passages of the source. At least one peptide structure holds a part that was inferred or is arguable (an end, a ring closure or a residue). Marks after values point to notes of the source that are not given here. Peptide text beside a SMILES is read from it.
# Assays:
# heart transplant = test: survival of heart transplant in vivo; set-up: species or system Balb/c mice (C57BL/6J donors)
# [1] = test system: T-lymphocyte (spleen cells); test: ConA induced T-lymphocyte proliferation in vitro (MTT); assay type: cell-based, Balb/c mice; conditions: ConA 5 μg/ml, 68 hr
# [2] = test system: carrageenin induced foot swelling; test: carrageenin induced foot swelling in rats; assay type: in vivo, Wistar rats; conditions: for Inhibition Index 0.5 hr / Swelling 0.5 hr: 0.5 hr after carrageenin; for Pre-challenge circumference: right foot, two weeks
# Protocol: Wistar rats were divided randomly into DXM group (0.2 mg/kg/day), saline control group (1 ml/day), and three dosages of CMS-030 groups (2, 10, 20 μg/ml/day). All of the drugs were diluted to 0.5 ml with saline, and were administered intraperitoneally (i.p) daily. Two weeks after drug administration, 0.15 ml of 1% carrageenin saline solution was applied to the right foot by subcutaneous injection. 0.5 hr later, the circumference of right foot was measured precisely, and foot swelling was calculated by subtracting the pre-challenge circumference from the post-challenge value Inhibition index (%)=(foot swelling of saline control group−foot swelling of drug group)/foot swelling of saline control group×100%.
# IL-2 = IL-2 levels in vivo (spleen cells of skin graft recipient mice, ELISA); set-up: species or system Balb/c mice; conditions: spleen cell culture supernatant, ConA 10 μg/ml
# [3] = test system: delayed hypersensitivity (DNFB-induced ear swelling); test: DNFB induced delayed hypersensitivity ear swelling in mice; assay type: in vivo, Balb/c mice; conditions: 10 μg/kg/day i.p.
# [4] = test system: mixed lymphocyte reaction (spleen cells); test: Mixed lymphocyte reaction (MLR) in vitro (MTT); assay type: cell-based, Balb/c and C57BL/6J mice; conditions: 5 days
# nutritionally obese rat = assay type: in vivo, Sprague-Dawley (SD) rats; conditions: for Index of body fat pad / Index of testicular fat pad / TCH (total cholesterol) / TG (blood triglyceride): 4 weeks
# skin allograft = test: survival of skin allograft in vivo (CMS-030); set-up: species or system Balb/c mice (C57BL/6J donors)
# T lymphocyte = T lymphocyte proliferation in vivo (spleen cells of skin graft recipient mice, ConA, MTT); set-up: species or system Balb/c mice; conditions: spleen cells of skin graft recipients, ConA 5 μg/ml
compound,measurement,setting,value
"CSCC[C@H](NC(=O)[C@H](CCC(=O)O)NC(=O)[C@H](CCC(=O)O)NC(=O)[C@@H](N)Cc1ccccc1)C(=O)O [CMS-030, Phe Glu Glu Met] (H-FEEM-OH; N-terminus and C-terminus assumed)",Mean survival time (heart transplant),heart transplant; 2 μg/kg/d i.p.,11.5 ± 1.9 days
same,Mean survival time (heart transplant),heart transplant; 10 μg/kg/d i.p.,12.0 ± 2.2 days
same,OD (T-lymphocyte proliferation),[1]; 0.32 μg/ml,0.315 ± 0.043
same,OD (T-lymphocyte proliferation),[1]; 1.6 μg/ml,0.311 ± 0.027
same,OD (T-lymphocyte proliferation),[1]; 8 μg/ml,0.281 ± 0.041
same,OD (T-lymphocyte proliferation),"[1]; 40 μg/ml, 570 nm",0.332 ± 0.062
same,Inhibition Index 0.5 hr,[2]; 2 μg/kg/d,37.0** %
same,Swelling 0.5 hr,[2]; 2 μg/kg/d,3.20 ± 0.87 cm
same,Inhibition Index 0.5 hr,[2]; 10 μg/kg/d,50.2** %
same,Swelling 0.5 hr,[2]; 10 μg/kg/d,3.10 ± 0.10 cm
same,Inhibition Index 0.5 hr,[2]; 20 μg/kg/d,43.8** %
same,Swelling 0.5 hr,[2]; 20 μg/kg/d,3.12 ± 0.05 cm
same,Pre-challenge circumference,[2]; 2 μg/kg/d i.p.,2.78 ± 0.06 cm
same,Pre-challenge circumference,[2]; 10 μg/kg/d i.p.,2.76 ± 0.03 cm
same,Pre-challenge circumference,[2]; 20 μg/kg/d i.p.,2.74 ± 0.04 cm
same,IL-2,IL-2; 2 μg/kg/d,577.4 ± 163.1 pg/mL
same,IL-2,IL-2; 10 μg/kg/d,599.0 ± 121.8 pg/mL
same,Inhibit rate,[3],46.5* %
same,OD (mixed lymphocyte reaction),[4]; 1.6 μg/ml,0.361 ± 0.036
same,OD (mixed lymphocyte reaction),[4]; 8 μg/ml,0.285 ± 0.004
same,OD (mixed lymphocyte reaction),[4]; 40 μg/ml,0.192 ± 0.019
same,Index of body fat pad,nutritionally obese rat; 150 μg/kg/day s.c.,3.9 ± 1.6
same,Index of testicular fat pad,nutritionally obese rat; 150 μg/kg/day s.c.,3.6 ± 0.9
same,TCH (total cholesterol),nutritionally obese rat; 150 μg/kg/day s.c.,270.9 ± 33.0 mg/dL
same,TG (blood triglyceride),nutritionally obese rat; 150 μg/kg/day s.c.,51.5 ± 19.4 mg/dL
same,body weight,"nutritionally obese rat; 150 μg/kg/day s.c., 0 week",327.0 ± 26.9 gram
same,body weight,"nutritionally obese rat; 150 μg/kg/day s.c., 1 week",348.9 ± 23.9 gram
same,body weight,"nutritionally obese rat; 150 μg/kg/day s.c., 2 week",346.5 ± 22.7 gram
same,body weight,"nutritionally obese rat; 150 μg/kg/day s.c., 3 week",351.8 ± 25.0 gram
same,body weight,"nutritionally obese rat; 150 μg/kg/day s.c., 4 week",354.0 ± 26.3 gram
same,food intake,"nutritionally obese rat; 150 μg/kg/day, Week four",17.8 ± 0.53 g/day
same,food intake,"nutritionally obese rat; 150 μg/kg/day, Week one",13.2 ± 3.1 g/day
same,food intake,"nutritionally obese rat; 150 μg/kg/day, Week three",18.3 ± 0.67 g/day
same,food intake,"nutritionally obese rat; 150 μg/kg/day, Week two",16.1 ± 1.8 g/day
same,Index of body fat pad,nutritionally obese rat; 300 μg/kg/day s.c.,3.8 ± 2.1
same,Index of testicular fat pad,nutritionally obese rat; 300 μg/kg/day s.c.,4.0 ± 1.1
same,TCH (total cholesterol),nutritionally obese rat; 300 μg/kg/day s.c.,234.9 ± 39.1 mg/dL
same,TG (blood triglyceride),nutritionally obese rat; 300 μg/kg/day s.c.,32.7 ± 6.7 mg/dL
same,body weight,"nutritionally obese rat; 300 μg/kg/day s.c., 0 week",338.0 ± 22.8 gram
same,body weight,"nutritionally obese rat; 300 μg/kg/day s.c., 1 week",369.7 ± 26.1 gram
same,body weight,"nutritionally obese rat; 300 μg/kg/day s.c., 2 week",359.6 ± 23.7 gram
same,body weight,"nutritionally obese rat; 300 μg/kg/day s.c., 3 week",364.3 ± 22.6 gram
same,body weight,"nutritionally obese rat; 300 μg/kg/day s.c., 4 week",366.3 ± 24.5 gram
same,food intake,"nutritionally obese rat; 300 μg/kg/day, Week four",18.4 ± 0.59 g/day
same,food intake,"nutritionally obese rat; 300 μg/kg/day, Week one",13.2 ± 4.8 g/day
same,food intake,"nutritionally obese rat; 300 μg/kg/day, Week three",18.1 ± 0.74 g/day
same,food intake,"nutritionally obese rat; 300 μg/kg/day, Week two",16.9 ± 1.6 g/day
same,Index of testicular fat pad,nutritionally obese rat; 600 μg/kg/day s.c.,5.0 ± 0.7
same,TCH (total cholesterol),nutritionally obese rat; 600 μg/kg/day s.c.,228.1 ± 39.8 mg/dL
same,TG (blood triglyceride),nutritionally obese rat; 600 μg/kg/day s.c.,40.6 ± 7.9 mg/dL
same,Index of body fat pad,"nutritionally obese rat; 600 μg/kg/day s.c., fat pad weight (g)/body weight (g)×1000",4.5 ± 1.1
same,body weight,"nutritionally obese rat; 600 μg/kg/day s.c., 0 week",339.0 ± 27.0 gram
same,body weight,"nutritionally obese rat; 600 μg/kg/day s.c., 1 week",365.4 ± 25.7 gram
same,body weight,"nutritionally obese rat; 600 μg/kg/day s.c., 2 week",355.1 ± 24.6 gram
same,body weight,"nutritionally obese rat; 600 μg/kg/day s.c., 3 week",361.7 ± 32.6 gram
same,body weight,"nutritionally obese rat; 600 μg/kg/day s.c., 4 week",369.9 ± 30.0 gram
same,food intake,"nutritionally obese rat; 600 μg/kg/day, Week four",18.5 ± 0.61 g/day
same,food intake,"nutritionally obese rat; 600 μg/kg/day, Week one",13.8 ± 5.4 g/day
same,food intake,"nutritionally obese rat; 600 μg/kg/day, Week three",18.2 ± 0.69 g/day
same,food intake,"nutritionally obese rat; 600 μg/kg/day, Week two",15.9 ± 1.7 g/day
same,Appetite,nutritionally obese rat; during the administration of the substance,not significantly affected
same,Mean survival time (skin allograft),skin allograft; 2 μg/kg/d i.p.,13.4 ± 1.5 day
same,Mean survival time (skin allograft),skin allograft; 10 μg/kg/d i.p.,14.1 ± 1.2 day
same,Stimulation index,T lymphocyte; 2 μg/kg/d,1.9 ± 0.5
same,Stimulation index,T lymphocyte; 10 μg/kg/d,1.6 ± 0.3
